Reference: publication PMC10163288
The list shows a part of the results.

B1: il10ra_site1_sap_12_mot_HHH_b1_02997_000000220_0001_39_52_H_._6901b4206402d3583e87baab01b64579_0001_1_af2_0001_0000100001_0000001_1_0001_af2pred_0001 (protein)
chain: SSSSSDREELEEEAEELMKELEREGDPKLFTRLVRLAKLLAELGNPLFEEVAKLLVELISSSSSS
B2: il10ra_site1_normal_mot_3bd581f07f1b12bbb9d960ae430c4d98_0001_000000069_0001_53_65_H_._HHH_b2_08143_0001_0000300019_0000001_0_af2pred_0001 (protein)
chain: SSSSSSEEEEIVEELVEEFGLSEEQQKALEYLAEYLKELGASEEEIEESLEVAARLLRLASSSSS
B3: il10ra_site1_normal_mot_HHH_b2_07521_000000141_0001_20_37_H_._HHH_b1_07534_0001_0000100004_0000001_1 (protein)
chain: SSSSSDEEYIELSLRFLEWLLREGDEEAARRIFRAIEDLIKSINDEELQRRLEELEEEIHSSSSS
B4: il10ra_site1_sap_22_mot_HHH_b2_02933_000000199_0001_1_19_H_._HHH_b1_02427_0001_0000400047_0000001_0_0001 (protein)
chain: SSSSNFVLRVLERVIERLIKLGNLEKAEIQAEEAIKHLRDAGDEEAVERLEELLEEIRELGSSSS
B5: il10ra_site1_sap_25_mot_39a7b8d0c4c3fc04bafbda6ce6101d3a_0001_1_af2_000000014_0001_34_48_H_._HHH_b1_07414_0001_0000400029_0000001_0_0001 (protein)
chain: SSSSSSEEREEFRRLEEELEEAKSADEWYEIAKRLIEVAAEANDPELARLVMELIREHLRSSSSS
B6: il10ra_site1_normal_mot_0cd074c2d6d3de76f1399c5a775575d2_0001_1_af2_000000000_0001_16_30_H_._HHH_b1_05697_af2_0001_0000500024_0000001_0_af2pred_0001 (protein)
chain: SSSSDEERLRELVEELVKELGLSERAQEILEISLEILLELGVDEREIERLLRILARDLAAQSSSS
B7: il10ra_site1_normal_mot_HHH_b1_03859_af2_000000004_0001_44_57_H_._HHH_b2_01252_0001_0000200002_0000001_0 (protein)
chain: SSSSSDEEEVERYVRLALRFAKRLEDERARRLLLRAAEEIAKRGNNPELEELVRKVAEELSSSSS
B8: il10ra_site1_sap_21_mot_HHH_b2_04681_000000155_0001_43_57_H_._HHH_b1_05531_0001_0000100005_0000001_0_0001_af2pred_0001 (protein)
chain: SSSSSLSERVAELLRRALEAERNGNPEEAERLLEEAKELAEENNNELIRIIIEYLERLLKRSSSS
B9: il10ra_site1_normal_mot_HHH_b1_02708_af2_000000019_0001_23_39_H_._HHH_b2_03011_0001_0000200021_0000001_1_af2pred_0001 (protein)
chain: SSSTLEERVVRLLFRALELLAKGDEEEARELIEEAEELARERNDEELLRAVEILLRLLELLSSSS
B10: il10ra_site1_sap_24_mot_HHH_b1_01879_000000050_0001_1_18_H_._HHH_b1_01254_af2_0001_0000100001_0000001_1_0001_af2pred_0001 (protein)
chain: SSSSDEEEQRALKLFIEISRALSNNDHEKAEELLEEVKELVEELNDPRLELAVRFLEALLKSSSS
B11: il10ra_site1_sap_25_mot_HHH_b1_05083_af2_000000148_0001_42_57_H_._HHH_b1_01020_0001_0000100003_0000001_0_0001 (protein)
chain: SSSSSEEELEELEKQVEKLIEEGNLREAMRVIAEAIRLAMRLGDEETLRELWELVQEIGRESSSS
B12: il10ra_site1_normal_mot_HHH_b2_03117_000000257_0001_1_18_H_._HHH_b2_06044_0001_0000100014_0000001_0 (protein)
chain: SSSSADELFRRVRELLEEASELAHNGNPEEAEKVLEEAEELVEEAGNETVLRVIRHALRLLSSSS
B13: il10ra_site1_normal_mot_HHH_b1_05099_000000057_0001_40_58_H_._HHH_b1_07262_0001_0000100008_0000002_1_af2pred_0001 (protein)
chain: SSSSSKEEEAFEKAREALERLARANNEELLKILAEDAARLLRLAGNPELAERLEEILEELRSSSS
B14: il10ra_site1_normal_mot_HHH_b1_04771_000000013_0001_40_56_H_._HHH_b2_02427_0001_0000100003_0000002_0 (protein)
chain: SSSSSDREEVLKLSQEAFRLALRGNPEEARKVLEEAEELAEELGNERALRVIEDLLRVLNSSSSS
B15: il10ra_site1_sap_10_mot_HHH_b1_02997_000000220_0001_39_52_H_._HHH_b2_06581_af2_0001_0000200006_0000001_0_0001 (protein)
chain: SSSSSEDEELIEAALRMARQAYENGNPETVRFLLWSAQFLAEEINDPELERKIEELEEELSSSSS
B16: il10ra_site1_normal_mot_HHH_b1_01011_000000096_0001_1_19_H_._HHH_b1_01367_0001_0000200014_0000002_0 (protein)
chain: SSSSSSNAERAVRFFLEAAKQIEDPEYVRLALRFARALAEDANDDELQRLVEEVEEELSSSSSSS
B17: il10ra_site1_normal_mot_HHH_b2_07746_000000186_0001_39_52_H_._HHH_b1_05626_af2_0001_0000100001_0000001_0 (protein)
chain: SSSSSSEEEKLKEILEELEELVEEGDRERFFEVYREALKLAFRTKDPEVFQRLYELARLLSSSSS
B18: il10ra_site1_sap_17_mot_HHH_b1_03279_000000242_0001_1_18_H_._2d357d39908965df4d2a4f0d1f6bb01a_0001_0001_0000500012_0000001_0_0001 (protein)
chain: SSSSDEELQEALELVLEAFRLALRGDPEEAREVLEEALELARQANDERLARQIEHMLEALHSSSS
B19: il10ra_site1_sap_10_mot_HHH_b1_05797_000000014_0001_1_19_H_._HHH_b1_08280_0001_0000100003_0000001_0_0001_af2pred_dldesign_0_af2pred (protein)
chain: SSSSSPEVEKKLAELKEKMEKAKNIDELMEIYREAKDAFFTYGEPELVELLKEIAKKIGEESSSS
B20: il10ra_site1_sap_16_mot_49468d6c54d8157f7969f91124172a68_0001_af2_000000173_0001_37_51_H_._f00c3073f43cf787293aa5685f029966_0001_1_0001_0000900033_0000001_0_000 … (protein)
chain: SSSSSAEFLVKQALRAARLVLEAGDEEETERILELARAVARNGGNPELEKEVEEVEEKLRGSSSS
B21: il10ra_site1_sap_17_mot_HHH_b2_06857_af2_000000179_0001_42_54_H_._HHH_b1_07223_af2_0001_0000800044_0000001_0_0001 (protein)
chain: SSSSDDEELVEAAIRLVEQALEHGDKEAAEFMLMAIRMLVEELGDDELERLLEELEELIERSSSS
B22: il10ra_site1_normal_mot_HHH_b2_00475_000000107_0001_44_57_H_._HHH_b1_05669_af2_0001_0000100005_0000001_1 (protein)
chain: SSSSSDQEVAELLFRAVRLHAEGNPEEAEKVVEEAQEIAEELGDEELRRYVEIALHFIRNSSSSS
B23: il10ra_site1_sap_19_mot_HHH_b2_05343_000000235_0001_19_35_H_._HHH_b1_03328_af2_0001_0000900010_0000001_0_0001 (protein)
chain: SSSSSEEEKLRELLEELEELVERGDEEKVRRLAREILRLVYQLNDPEALRLLWELFARALSSSSS
B24: il10ra_site1_sap_13_mot_ems_3hM_3349_000000004_0001_25_42_H_._32063319e58c7a3ce97db74413982e08_0001_1_0001_0000400021_0000002_0_0001 (protein)
chain: SSSSTDERFEKVKEAVERAVELQRNGDPEEARRVLEEALELAEEANDQILVRILQKLLERLSSSS

The binders below were run against il10ra, Q13651 (assay: yeast display titration).

Apparent Kd, inactive:
B1 no binding seen
B2 no binding seen
B3 no binding seen
B4 no binding seen
B5 no binding seen
B6 no binding seen
B7 no binding seen
B8 no binding seen
B9 no binding seen
B10 no binding seen
B11 no binding seen
B12 no binding seen
B13 no binding seen
B14 no binding seen
B15 no binding seen
B16 no binding seen
B17 no binding seen
B18 no binding seen
B19 no binding seen
B20 no binding seen
B21 no binding seen
B22 no binding seen
B23 no binding seen
B24 no binding seen

Quoted from above (5 entries):
Apparent Kd, inactive:
B9 no binding seen
B10 no binding seen
B11 no binding seen
B12 no binding seen
B13 no binding seen
